According to the supplement of paper PMC3334620:
The full ranking holds about 33,000 sequences; the median of “E-score (-0.5 to 0.5)” is about -0.015, and the highest 2% start at about 0.3. The list shows a part of the results.

Target: T1, Abf1 (UniProt P14164)
T1 sequence: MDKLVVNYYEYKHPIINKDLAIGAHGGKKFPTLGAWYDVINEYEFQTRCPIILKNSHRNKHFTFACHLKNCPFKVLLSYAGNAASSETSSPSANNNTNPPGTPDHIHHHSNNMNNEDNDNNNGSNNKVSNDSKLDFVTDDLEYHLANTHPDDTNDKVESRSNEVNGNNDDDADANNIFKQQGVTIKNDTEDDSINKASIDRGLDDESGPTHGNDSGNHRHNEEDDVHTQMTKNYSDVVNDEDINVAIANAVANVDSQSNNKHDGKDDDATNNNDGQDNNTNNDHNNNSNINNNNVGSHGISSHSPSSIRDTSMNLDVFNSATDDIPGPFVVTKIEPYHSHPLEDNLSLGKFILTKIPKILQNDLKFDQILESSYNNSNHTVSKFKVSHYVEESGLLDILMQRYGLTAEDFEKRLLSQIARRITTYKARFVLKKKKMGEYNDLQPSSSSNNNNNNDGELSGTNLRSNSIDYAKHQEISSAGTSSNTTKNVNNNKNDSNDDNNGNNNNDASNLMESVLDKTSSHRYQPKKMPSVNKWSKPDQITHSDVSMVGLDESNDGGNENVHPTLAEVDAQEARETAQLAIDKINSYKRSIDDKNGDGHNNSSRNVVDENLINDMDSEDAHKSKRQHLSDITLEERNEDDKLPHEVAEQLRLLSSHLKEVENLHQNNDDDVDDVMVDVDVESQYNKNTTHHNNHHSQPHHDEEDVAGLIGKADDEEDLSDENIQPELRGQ
Assay: PBM E-score (8-mer binding enrichment) (E-score (-0.5 to 0.5)); higher = stronger / more preferred TF binding
Conditions: protein concentration: 200 nM; construct: GST-full length
Experimental: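 Universal 'all 10-mer' protein binding microarrays (Agilent AMADID 015681) probed with GST-tagged S. cerevisiae TFs (full-length or DBD) made by in vitro transcription/translation (PURExpress), about 100-200 nM. Bound TF was detected with fluorescent anti-GST. Each ungapped 8-mer (which stands for itself and its reverse complement) is scored by the PBM enrichment score (E-score), a modified Wilcoxon-Mann-Whitney statistic from -0.5 to +0.5, computed with the Universal PBM Analysis Suite. Scale: above 0.35 generally sequence-specific binding.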

Sequence	PBM E-score
GCTTTTGA	-0.13
CCATCGGC	-0.142
CTCTTCAC	0.0515
AATAATCA	0.227
CAATTAGA	-0.121
CACGTGAC	0.22
AGAGAACT	-0.0311
ACTTGGTG	-0.141
ACAGCGTG	0.0194
CCGGTGTC	-0.262
GACTTCAA	-0.124
CAAGTCGA	-0.106
AGCCCGAA	-0.0782
CGCACGAA	0.321
ACTCGGAT	0.0437
AAGAGCAG	-0.216
GGTTTATA	0.105
GATCGTCA	0.277
CCCCGCGG	-0.255
AGGACGCA	-0.181
GGTCGCTA	0.0741
ACCACTGC	-0.127
TCGCTCCA	0.00797
GCACAACA	-0.0984
AAGCTATG	-0.163

Sequence	PBM E-score
GTCTCTCA	0.0465
ATAATACC	0.189
CCTGGAAC	-0.0203
GGGTGCAC	-0.0187
CCAGATCA	0.218
CGTCCGCC	-0.0516
GATGCGGA	-0.0896
ATCGTCGA	0.289
GCTAGAAC	-0.063
CCTGGCCA	-0.161
AGGTCAAC	-0.0991
GGTAATGA	0.17
AAGGATGG	-0.0912
GGGCTGCA	-0.191
GGCTGTAC	0.00065
ATCGACCC	-0.0929
AAATGTTA	0.0905
CAAATTAG	0.171
TAGTCGCA	-0.0737
AAGAGGGC	0.0275
ACTGTCCC	-0.126
CGAATGCG	0.103
GCCAAAAC	-0.156
CACACCCG	-0.0662
TAATAAAA	0.188

Sequence	PBM E-score
CTCAGCCA	-0.0785
AACGCTAT	0.0722
ACGATCCT	0.165
CTGATTTC	0.129
CAGGGCCA	-0.227
CTCATTTA	0.0543
CCAGGAAC	-0.22
ATGCGGGG	-0.054
CAATATTC	-0.0413
AACGGATT	0.236
AGGTCCAA	-0.193
CAGGATAA	-0.0165
AGCCAGAA	-0.0335
CCTCGGAG	-0.229
GCAATGGC	-0.291
TCAAGGCA	-0.264
AACTGAAG	-0.0872
AGACAGTC	-0.226
TACTGTGA	-0.0129
ACTGGGCG	-0.177
ACGGTGCA	0.159
CTCGGGAC	-0.163
CAAGTGCC	-0.336
GGGACACC	-0.126
ACGTTGTA	0.14

Sequence	PBM E-score
AGCAATCC	-0.0511
TACAAAGA	0.234
CCGGACCG	-0.0652
ACCGATAG	-0.0276
CATCAGAG	0.111
CCGGCGGA	-0.0642
GCTTGAAC	0.19
AGTGGCTA	-0.0332
ACGAACAC	0.245
TGGAAACA	0.015
GAGATTCA	-0.0442
GTAATCGA	0.184
CCTAAAGA	-0.188
ATGTAAGC	0.00043
TATTATCA	0.34
CAATGACG	0.156
AGGCCTTA	-0.137
CTACGTAG	0.12
AAGCGTCT	-0.218
GGATTTTA	-0.071
TCTAATCA	0.154
CATGCTTA	-0.0464
AAATCCTG	-0.0759
CACCGTAC	0.385
CGGAACTC	-0.119

Reformatted: entries from further up.
CAAGTCGA
  PBM E-score: -0.106
TAGTCGCA
  PBM E-score: -0.0737
ATGCGGGG
  PBM E-score: -0.054
AGGTCCAA
  PBM E-score: -0.193

More entries.

Sequence	PBM E-score
ACTATCAA	0.188
CCAGCCGA	-0.284
ATGAGAAC	0.111
ATCATGAC	0.265
AATAGACC	-0.21
ACCGTAAT	0.0793
GATGTCAC	0.395
ACAAGCGG	0.0458
CGGCGTCA	-0.103
CTTTTTAA	0.0715
CTCTGCAG	-0.177
AAGATCTT	0.061
CGTTTCCA	0.101
CTCGTTTA	0.0984
CAACTATG	-0.0379
CAGGACTA	-0.0861
CGATTTCA	-0.045
CCCTTGAC	-0.169
AAGCGGAG	-0.337
CCCATCTC	-0.0893
CTCCGTAA	0.156
CGCGACAG	0.0117
CGCACAGA	-0.00661
CGTTTCCC	-0.0977
CCTACTCA	-0.21

Sequence	PBM E-score
GGATAACC	0.0683
CTCGAGAG	-0.0384
AAGTTATC	0.217
TGAACTAA	0.0826
AATGTACC	0.0616
AGCCCCTA	-0.456
GAGGCCCA	-0.169
ACAGTGAA	0.0759
GACCTGAC	-0.103
AGAGGGCG	-0.228
GTAGGAGA	-0.224
AAAGACAG	-0.0157
GGCATAAA	-0.105
CCCAGTAG	0.0529
GAGATCGC	0.164
CCATGGTA	-0.0243
CATCCTGA	0.082
ACGGTGAG	0.161
CCTCTGAG	-0.215
TACCGCAA	0.0695
CCCCCAAA	-0.276
ACATCCCC	-0.0404
ATGCCCCG	-0.126
AGAAACGA	0.183
ACACGTTG	0.0729

Sequence	PBM E-score
TCTGCGAA	-0.0842
CGAGCAAG	-0.202
ACAGTTCT	-0.0751
GCGATTGA	-0.0308
CTACGCGC	0.0294
GCGGTGAC	0.212
TAAGGCCA	-0.104
ACGTGTCA	0.186
CTACTCAA	0.125
AAGGCACC	-0.189
CCGTGTAA	0.217
CCACAAGC	-0.321
CAACGCCG	0.107
ACTCAGTA	0.0588
GACTCAGC	-0.124
AACAGAAG	-0.0743
GCGGGGCA	-0.12
CAGCTTTC	-0.00915
CGCCGTAC	0.315
GACGACCC	-0.162
GCATCTAC	-0.0213
CTGCTCTC	-0.174
ACTCCGAG	0.0397
ACTCAATG	-0.08
ACGATTCT	0.19

Sequence	PBM E-score
GTTTTATA	0.234
GAGGGTAA	-0.123
ACCTCGGG	-0.155
CATTTATC	0.222
AACTCCCT	-0.105
ACAAAACC	0.145
GACAGATC	0.123
ATGGGTTC	-0.0947
AGGGTATA	-0.0651
TCAAATAA	0.208
ATTTCTCA	0.128
CAGGTCGC	-0.00575
CGGGGTAC	-0.179
ACTGTAGA	-0.0363
AAGCTTTA	-0.159
CTCCTTTC	-0.201
CAGCGTAC	-0.194
GGGTCGAC	-0.0894
CTCCGGCA	0.105
AATGTCGC	0.219
ACACTTCC	-0.151
GACCCAAC	-0.13
CCAAGGCA	-0.121
ACCGTGTC	0.0295
CCATCACC	-0.0178

Sequence	PBM E-score
GGTCGCAA	-0.0813
GCGGGGGA	-0.353
ATCACTTG	0.355
ATATAGGA	-0.114
GCCTATCA	0.0867
CGTATAAA	0.417
ATGTGATC	0.18
GAGACGAA	0.0822
GCGTCTCC	0.0243
CGTGTTCC	0.0539
CGAGACCC	-0.137
CTTCGTTC	-0.00248
CACCTGGC	-0.119
GAGTAGGC	-0.173
ATACCACA	-0.0671
ATACGGTA	0.319
GCGGTAGC	0.0709
ATAATGAT	0.344
GAAAAAAC	0.0978

For convenience, some entries already given:
Sequence	PBM E-score
CGTGTTCC	0.0539
CGAGACCC	-0.137
CTTCGTTC	-0.00248
